According to PubChem BioAssay AID1688 (National Center for Advancing Translational Sciences (NCATS), 2009):
Out of some 220,000 compounds screened, about 2,400 (1.1%) were called active. This list was built around the results that the source calls inconclusive (neither active nor inactive); the mix of calls is not that of the screen. The call rests on the fitted dose curve; in most records, active means well fitted inhibition curve with a large enough effect; inconclusive means small, poorly fitted or top-dose-only effect, or effect the other way; inactive means no such curve, though single readings can be large or run the other way. Where the call is inconclusive, the potency comes from a doubtful curve fit.

test: qHTS Multiplex Assay to Identify Dual Action Probes in a Cell Model of Huntington: Aggregate Formation (GFP); settings: PC12 HttQ103-GFP aggregates, Acumen cytometry, 40 h; activity change, negative = inhibition: at 46.1 µM (top of the series) unless noted; further: nearly all actives have a fitted effect of over 60% in size
Procedure, shortened: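 Compounds (qHTS titration) were added to PC12 cells expressing an ecdysone-driven HTT exon 1 Q103–GFP fusion after induction with 100 nM tebufenozide. Aggregate formation was measured as GFP objects in cell lysates.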
On the % scale 0 is the no-effect control and ±100 the full control effect; potency means the concentration at half of the fitted maximal effect.

Row | SMILES | Potency | activity change, negative = inhibition
1 | CCCn1nc(NC(=O)CC(C)C)c2cc3ccccc3nc21 | inconclusive: 1.26 µM [inhibitor, single point] | –
2 | CC(=O)Nc1nc2c(c3c1c(=O)oc1ccccc13)CC(C)CC2 (stereo unspecified) | – | inactive: -6.82%
3 | CC1(C)C(C=C(Cl)Cl)C1C(=O)N1CCN(Cc2ccccc2)CC1 (stereo unspecified) | – | inactive: -7.99%
4 | Cc1ccc(SCCNC(=O)c2ccccc2C)cc1 | – | inactive: 8.13%
5 | NC(=O)C1(N2CCCCC2)CCN(C2CC(=O)N(Cc3ccc(N4CCCC4=O)cc3)C2=O)CC1 (stereo unspecified) | inconclusive: 20 µM [activator, partial curve] | –
6 | [O-][n+]1onc2c3cc(-c4ccccc4)nnc3ccc21 | inconclusive: 35.5 µM [activator, partial curve, poor fit] | –
7 | CC(C)(C)c1ccc(C(=O)NCCCN2CCN(CCCNC(=O)c3ccc(C(C)(C)C)cc3)CC2)cc1 | active: 7.08 µM | –
8 | O=C(Nc1ccc(F)cc1)c1cc(S(=O)(=O)N2CCCCC2)cs1 | active: 10 µM | –
9 | Cc1cc(C)n(-c2nc(C)nc(N)n2)n1 | active: 0.794 µM | –
10 | C/C(=N\S(=O)(=O)c1ccc(C)cc1)N1CCN(S(=O)(=O)c2ccccc2)C1 | – | inactive: 27.1%
11 | CC1CCCCN1Cc1c(O)ccc2c(=O)c(-c3nc4ccccc4s3)c(N)oc12 (stereo unspecified) | inconclusive: 22.4 µM [inhibitor, single point] | –
12 | Cc1ccc(S(=O)(=O)CC2CSc3nc4ccccc4n32)cc1 (stereo unspecified) | active: 7.08 µM | –
13 | Cc1cc2nc3c(=O)[nH]c(=O)nc-3n(CC(O)C(O)C(O)COP(=O)(O)O)c2cc1C (stereo unspecified) | inconclusive: 22.4 µM [inhibitor, partial curve, poor fit] | –
14 | Clc1cccc(Cl)c1CSc1nnc(-c2sccc2-n2cccc2)o1 | inconclusive: 15.8 µM [inhibitor, single point] | –
15 | COC(=O)c1[nH]c2cc(OC)ccc2c1NC(=O)CN1CCN(c2cccc(C)c2)C(C)C1 (stereo unspecified) | inconclusive: 35.5 µM [inhibitor, single point] | –
16 | Cc1nn(C(C)(C)C)c(OC(=O)c2ccc3c(c2)OCO3)c1S(=O)(=O)c1ccccc1 | inconclusive: 28.2 µM [inhibitor, single point] | –
17 | O=C(c1cccs1)N1CCC(c2nc3ccccc3s2)CC1 | inconclusive: 28.2 µM [inhibitor, single point] | –
18 | Cc1cccc(CS(=O)(=O)c2nnc([C@H](Cc3ccccc3)NC(=O)OC(C)(C)C)o2)c1 | inconclusive: 20 µM [inhibitor, single point] | –
19 | COCC(=O)N1CCCC(C(=O)c2ccc(-c3ccccc3)c(F)c2)C1 (stereo unspecified) | – | inactive: -32.5%
20 | C[N+](C)(C)CCOC(=O)C1(c2ccccc2)CCCC1 | – | inactive: 0.479%
21 | COc1ccc(S(=O)(=O)N(C)CC(=O)Nc2ccccc2OC)cc1C | – | inactive: -8.94%
22 | CCc1cc2c(=O)n(CCC(C)C)c(=S)[nH]c2s1 | inconclusive: 15.8 µM [inhibitor, single point] | –
23 | O=C(CSc1nc(NS(=O)(=O)c2ccccc2)cc(=O)[nH]1)Nc1ccc(F)cc1 | – | inactive: -6.97%
24 | Cc1oc(-c2ccccc2F)nc1CS(=O)(=O)CC(=O)N1CCN(c2ccccc2)CC1 | inconclusive: 10 µM [inhibitor, partial curve] | –

One compound at a time (already shown).
CC1CCCCN1Cc1c(O)ccc2c(=O)c(-c3nc4ccccc4s3)c(N)oc12 (stereo unspecified) in the list: Potency: inconclusive: 22.4 µM [inhibitor, single point]
Cc1cc(C)n(-c2nc(C)nc(N)n2)n1 in the list: Potency: active: 0.794 µM
C/C(=N\S(=O)(=O)c1ccc(C)cc1)N1CCN(S(=O)(=O)c2ccccc2)C1 in the list: activity change, negative = inhibition: inactive: 27.1%
CC1(C)C(C=C(Cl)Cl)C1C(=O)N1CCN(Cc2ccccc2)CC1 (stereo unspecified) in the list: activity change, negative = inhibition: inactive: -7.99%

Later entries.

Row | SMILES | Potency | activity change, negative = inhibition
25 | COc1cc(/C=C/C(=O)CC(=O)/C=C/c2ccc(O)c(OC)c2)ccc1O | inconclusive: 3.55 µM [activator, partial curve] | –
26 | Cc1ccc(NC(=O)c2cc(C(=O)c3cc(Cl)ccc3O)cn(-c3ccc(C)cc3)c2=O)cc1 | inconclusive: 3.98 µM [inhibitor, partial curve] | –
27 | O=C(N[C@@H](Cc1ccccc1)c1nc2ccccc2[nH]1)c1cc([N+](=O)[O-])ccc1Cl | inconclusive: 35.5 µM [inhibitor, single point] | –
28 | O=C1CC(=C(c2ccccc2)c2ccccc2)C(=O)N1CCCCN1CCN(c2cccc(Cl)c2)CC1 | inconclusive: 35.5 µM [inhibitor, single point] | –
29 | O=C(NNC(=S)NC1CCCCC1)c1ccccc1O | active: 10 µM | –
30 | O=c1[nH]c(SCc2ccccc2Cl)nc2[nH]ncc12 | – | inactive: -15.2%
31 | O=C(c1ccccc1)C(CCC(CN1CCOCC1)C(=O)c1ccccc1)CN1CCOCC1 (stereo unspecified) | inconclusive: 35.5 µM [inhibitor, single point] | –
32 | C=CCn1c(SCc2c(C)noc2C)nc2sc3c(c2c1=O)CCCCC3 | inconclusive: 28.2 µM [inhibitor, single point] | –
33 | CCn1c(-c2cc(Br)cc(OC)c2O)nc2cc(S(=O)(=O)N(C)C)ccc21 | inconclusive: 35.5 µM [inhibitor, single point] | –
34 | O=C(CCl)c1ccc(Cc2ncc(C(F)(F)F)cc2Cl)s1 | – | inactive: -6.09%
35 | O=C(NC(N1CCOCC1)C(Cl)(Cl)Cl)c1ccccc1Cl (stereo unspecified) | – | inactive: 1.68%
36 | CC(C)=NNC(=O)c1c(O)c2ccccc2[nH]c1=O | – | inactive: -8.15% [at 9.22 µM]
37 | CCC(OC(=O)CN1C(=O)C(=O)c2ccccc21)C(=O)Nc1ccc(S(N)(=O)=O)cc1 (stereo unspecified) | – | inactive: -11.3%
38 | O=Nc1ccc(NOC(=O)c2ccccc2)cc1 | – | inactive: -17.3%
39 | CC(C)CNc1nc(Oc2ccc(=O)n(C)n2)nc(N2CCOCC2)n1 | inconclusive: 35.5 µM [activator, single point] | –
40 | COCCOC(=O)C1=C(C)Nc2cc(=O)[nH]c(=O)n2C1c1cccc([N+](=O)[O-])c1 (stereo unspecified) | – | inactive: -5.98%
41 | CCN(CC)c1ccc(C(=S)NC2CCCCC2)cc1 | inconclusive: 12.6 µM [inhibitor, single point] | –
42 | COc1ccc(C(CC(=O)c2ccc(C)cc2)C(C#N)C#N)cc1OC (stereo unspecified) | inconclusive: 2.82 µM [activator, single point] | –
43 | NC(=O)COC(=O)c1ccccc1OCc1ccccc1 | inconclusive: 5.62 µM [inhibitor, single point] | –
44 | Cc1nc2ccccc2n1CC(O)COC1CCCCC1 (stereo unspecified) | inconclusive: 35.5 µM [inhibitor, single point] | –
45 | CCCC[n+]1ccn(-c2nc3ccccc3nc2[N-]S(=O)(=O)c2ccc(Cl)cc2)c1 | – | inactive: -18.6% [at 9.22 µM]
46 | Fc1ccc(NC(=S)NCCc2ccccn2)cc1 | inconclusive: 0.562 µM [activator, full curve, poor fit] | –
47 | O=C(C1CCN(S(=O)(=O)c2cccs2)CC1)N1CCN(c2ccccc2)CC1 | inconclusive: 2.82 µM [inhibitor, partial curve, poor fit] | –
48 | COc1ccc(N2CCN(c3ncnc4c3[nH]c3ccccc34)CC2)cc1 | inconclusive: 2.82 µM [inhibitor, full curve] | –

Row | SMILES | Potency | activity change, negative = inhibition
49 | CN(CC(=O)O)S(=O)(=O)c1cccs1 | inconclusive: 5.62 µM [inhibitor, single point] | –
50 | Cc1ccc(Nc2c(N)c(=O)oc3ccccc23)cc1 | inconclusive: 4.47 µM [inhibitor, full curve, poor fit] | –
51 | CCc1nn(CCCC(=O)N2CCc3ccccc3C2)c(=O)c2cc3occc3n12 | – | inactive: -8.22%
52 | CCn1cc(Br)c(C(=O)Nc2ccc(Cl)c(Cl)c2)n1 | inconclusive: 17.8 µM [inhibitor, partial curve, poor fit] | –
53 | COc1cc(/C=N/n2nnnc2N)ccc1OCc1c(C)no[n+]1[O-] | inconclusive: 14.1 µM [activator, single point] | –
54 | N#Cc1nc(Cc2ccccc2)oc1NCc1ccccc1Cl | active: 8.91 µM | –
55 | O=C(Cn1[nH]c(=O)c2ccccc2c1=O)Nc1ccc(-c2nnc3n2CCCCC3)cc1 | – | inactive: -13.9%
56 | CCOc1cc2[nH]c(=S)n(C3CC3)c(=O)c2cc1OCC | inconclusive: 1.58 µM [activator, partial curve] | –
57 | CCOc1ccc(C2NC(=O)C(C#N)=C(S)N2c2ccc(OC)cc2)cc1OC (stereo unspecified) | inconclusive: 5.62 µM [inhibitor, single point] | –
58 | COc1cc(OC)c(OC)cc1/C=C1\CCC(C2CCCC2)C1=O (stereo unspecified) | – | inactive: 0.269%
59 | Nc1nccc(-c2cccs2)n1 | – | inactive: -19.9%
60 | Cc1ccccc1NC(=O)Nc1ccc(C(F)(F)F)cc1 | active: 11.2 µM | –
61 | O=C(COC(=O)C1(c2ccc(Cl)cc2)CCCC1)Nc1ncc(C(F)(F)F)cc1Cl | inconclusive: 35.5 µM [inhibitor, single point] | –
62 | CC(=O)N(Cc1ccc(F)cc1)C1=C(NCCc2ccccc2)C(=O)c2ccccc2C1=O | active: 7.08 µM | –
63 | CCc1c(C)[nH]c2ccccc2c1=O | inconclusive: 35.5 µM [inhibitor, single point] | –
64 | COc1ccc(C(=O)C(/C=N/O)=N/Nc2ccc(F)cc2)cc1 | inconclusive: 35.5 µM [inhibitor, single point] | –
65 | O=C(c1ccco1)N(Cc1cccs1)C1CCS(=O)(=O)C1 (stereo unspecified) | – | inactive: -13%
66 | CCOC(=O)C1(C)/C(=N/Nc2ccccc2Cl)C(=O)C(=O)N1c1ccccc1 (stereo unspecified) | inconclusive: 7.94 µM [inhibitor, single point] | –
67 | O=C(CSc1nnc(-c2cc3ccccc3cc2O)n1Cc1ccco1)c1ccc(F)cc1 | inconclusive: 35.5 µM [inhibitor, single point] | –
68 | CS(=O)(=O)NCCOc1ccc(S(=O)(=O)NCCOc2ccccc2)cc1 | inconclusive: 11.2 µM [inhibitor, single point] | –
69 | C#CC(=O)N(c1ccc(OC)c(OC)c1)C(C(=O)NC1CCCC1)c1cccs1 (stereo unspecified) | inconclusive: 35.5 µM [inhibitor, single point] | –
70 | Cc1ccc(-c2cc(C(F)(F)F)n3ncc(C(=O)N4CCN(C)CC4)c3n2)cc1 | inconclusive: 1.58 µM [activator, partial curve, poor fit] | –
71 | CCOC(=O)c1cnn(-c2ccccc2)c1NC(=O)CSc1nnc(-c2cccs2)n1CC | inconclusive: 35.5 µM [activator, partial curve, poor fit] | –
